Earlier results on 1 molecule are cited in patent US6528516B1, “Methods for reducing intraocular pressure using A3 adenosine receptor antagonists” (Trustees of the University of Pennsylvania, The Center for …, priority 1998, dated 2003).

The target of this data set is protein kinase C (PKC). Conditions: read-out: Ki for inhibition of protein kinase C; depending on the assay system; cited from earlier work.

On to `CC/C(=C(\c1ccccc1)c1ccc(OCCN(C)C)cc1)c1ccccc1` [tamoxifen], for which the Ki is 5 to 100 µM.
